Patent US11065294B2, “Composition including oriental medicine to treat neoplastic disease” (COMPREHENSIVE AND INTEGRATIVE MEDICINE INSTITUTE, priority 2013, dated 2021)
Values joined by “and” are separate entries in the source; they are usually repeats but may differ in a detail not shown here. Equal entries are not always repeated. Structures can show the parent of a compound that is named as a salt.

System: MCF-7 cells
Test: MCF-7 cell viability (cytotoxicity)
Type: cell-based
Conditions: Homo sapiens, MCF7

CC/C(=C(\c1ccccc1)c1ccc(OCCN(C)C)cc1)c1ccccc1 [Tamoxifen, Tamoxifen citrate]
IC50: 1.88 µM and 0.69 µg/mL
